This note sets out measurements from patent publication US20150355172A1.

These are yes or no findings as the source states them, for the method shown. Binding calls can cover weak binding; strength is not graded here. Where a sequence is shown, tags or fusion partners need not be part of it.

Assay [1] concerns the target auto-poly-ADP-ribosylated PARP1 protein (human). The assay can be described thus: dot blot and Western blot, fusion at 10 ng/ul, goat anti-rabbit IgG HRP detection.
The target of assay [2] is auto-oligo-ADP-ribosylated PARP1 protein (less than 10 ADP-ribose units) (human). The description is as above.

B1: Macro(AF1521)-Fc (AF1521 macrodomain-Fc fusion) (Fc fusion)
chain: MGHHHHHHHHHHSSGHIDDDDKHMWSHPQFEKMERRTLIMEVLFEAKVGDITLKLAQGDITQYPAKAIVNAANKRLEHGGGVAYAIAKACAGDAGLYTEISKKAMREQFGRDYIDHGEVVVTPAMNLEERGIKYVFHTVGPICSGMWSEELKEKLYKAFLGPLEKAEEMGVESIAFPAVSAGIYGCDLEKVVETFLEAVKNFKGSAVKEVALVIYDRKSAEVALKVFERSLGSTGSSSKPTCPPPELLGGPSVFIFPPKPKDTLMISRTPEVTCVVVDVSQDDPEVQFTWYINNEQVRTARPPLREQQFNSTIRVVSTLPIAHQDWLRGKEFKCKVHNKALPAPIEKTISKARGQPLEPKVYTMGPPREELSSRSVSLTCMINGFYPSDISVEWEKNGKAEDNYKTTPAVLDSDGSYFLYSKLSVPTSEWQRGDVFTCSVMHEALHNHYTQKSISRSPGK
As to B1, the binding result in assay [1] and in assay [2] was “binds” throughout.

B2: Macro(mH2A1.1)-Fc (macroH2A1.1 macrodomain-Fc fusion) (Fc fusion)
chain: MGHHHHHHHHHHSSGHIDDDDKHMGEVSKAASADSTTEGTPADGFTVLSTKSLFLGQKLQVVQADIASIDSDAVVHPTNTDFYIGGEVGNTLEKKGGKEFVEAVLELRKKNGPLEVAGAAVSAGHGLPAKFVIHCNSPVWGADKCEELLEKTVKNCLALADDKKLKSIAFPSIGSGRNGFPKQTAAQLILKAISSYFVSTMSSSIKTVYFVLFDSESIGIYVQEMAKLDANLDGSTGSSSKPTCPPPELLGGPSVFIFPPKPKDTLMISRTPEVTCVVVDVSQDDPEVQFTWYINNEQVRTARPPLREQQFNSTIRVVSTLPIAHQDWLRGKEFKCKVHNKALPAPIEKTISKARGQPLEPKVYTMGPPREELSSRSVSLTCMINGFYPSDISVEWEKNGKAEDNYKTTPAVLDSDGSYFLYSKLSVPTSEWQRGDVFTCSVMHEALHNHYTQKSISRSPGK
For the molecule B2, the binding result in assay [1] was “binds”.
